Measurements as given in patent publication US5446152A, “Heterocyclic compounds active in gastro-intestinal pathologies” (priority 1993, dated 1995).
Structures can show the parent of a compound that is named as a salt. The name of at least one read-out is uncertain.

Tested on: intestinal transit
Assay: Intestinal transit of an opaque meal in the mouse (prokinetic action)
Type: in vivo, Swiss albino mice
Details: dose five times greater than ED50
Description: In tables 5, 6, 7 and 8 the significance was determined by means of Student's test on absolute values with respect to the relative controls using 10 animals per group in tests 5, 6 and 7.
The prokinetic action was evaluated in vivo on Swiss albino mice determining the influence of the products on the intestinal transit of an opaque meal, according to the method described by Macht D. I. and Barba-Gose J. in J. Amer. Pharm. Ass. 20, 558, 1931 and later by Witkin L. B. et al. in J. Pharmacol. Exp. Ther. […]
The method involved the administration of an opaque meal to the mice after a 24 hour fast, through gastric probe, 15 minutes after the administration of the product.
After sacrificing the animals 20 minutes after the administration of the opaque meal, the percentage of the length of the intestine travelled by the opaque meal was calculated.

Structure (SMILES) | % of intestine (from pylorus to anus) travelled by the opaque meal
CCN(CC)CCN1CNc2ccc(Cl)cc2C1=O.O=C(O)C(=O)O [Example 1, 6-Chloro-3-[2-(diethylamino)ethyl]-2,3-dihydro-4(1H)-quinazolinone oxalate] | 54.3%
CCN(CC)CCCN1CNc2ccc(Cl)cc2C1=O [Example 3, 6-Chloro-3-3-(diethylamino)propyl-2,3-dihydro-4(1H)-quinazolinone oxalate] | 43.2%
CCN(CC)CCCN1CN(C)c2ccc(Cl)cc2C1=O.O=C(O)C(=O)O [Example 4, 6-Chloro-3-[3-(diethylamino)propyl]-2,3-dihydro-1-methyl-4(1H)-quinazolinone oxalate] | 48.8%
O=C(O)C(=O)O.O=C1c2cc(Cl)ccc2NCN1CCN1CCCC1 [Example 5, 6-Chloro-2,3-dihydro-3-[2-(1-pyrrolidinyl)ethyl]-4(1H)-quinazolinone oxalate] | 48.0%
CCN(CC)CCCN1COc2ccc(Cl)cc2C1=O.O=C(O)C(=O)O [Example 8, 6-Chloro-3-[3-(diethylamino)propyl]-2,3-dihydro-4H-1,3-benzoxazin-4-one oxalate] | 53.4%
